This is one part of the list. These are further read-outs of the screen, such as a control signal, another cell line or another target. No call is given for them. Most of these compounds were active or inconclusive in the main read-out, so they are no random draw. The note in brackets gives the kind of curve behind each potency; many fits are weak.
Assay: qHTS Assay for Lipid Storage Modulators in Drosophila S3 Cells;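 on cell number change: cells counted by Cell Tracker Red CMTPX staining in the red channel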
Details: BODIPY lipid droplet fluorescence, 18-24 h; for cell number change: measured here: cell count max response, cells fed with added oleic acid
Method in brief: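 Drosophila S3 cells got compounds at several concentrations plus oleic acid (400 uM solution). Laser-scanning cytometry with 488 nm excitation read lipid droplets at 500-530 nm and cells at 575-640 nm. Percent activity was relative to 20 uM Triacsin C.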

[1] = measured here: cell number channel AC50, cells fed with added oleic acid
[2] = measured here: lipid fluorescence (Fed channel) AC50, cells fed with added oleic acid

Structure (SMILES) | cell number change [%] | AC50 [1] | AC50 [2]
CN1Cc2c(N3CCOCC3)nc3sc(C(=O)c4ccc(Br)cc4)c(N)c3c2CC1(C)C | -49.2 | 20.6 µM [falling, single point] | 29.1 µM [falling, single point]
Cc1ccc(C(=O)NC2CCCCC2)cc1S(=O)(=O)N1CCCC1 | -29.2 | – | 6.51 µM [falling, single point]
CN1/C(=C\C(=O)C[n+]2cccc(Br)c2)C(C)(C)c2ccccc21 | -2.19 | – | 29.1 µM [falling, single point]
CC1=C(C(=O)Nc2ccc(Cl)cc2)C(c2ccncc2)C(C#N)=C(SCC(N)=O)N1 (stereo not drawn) | – | 0.164 µM [rising, full curve, poor fit] | 0.164 µM [rising, full curve, poor fit]
CCC(c1nnnn1CCOC)N(Cc1cc2c(C)cc(C)cc2[nH]c1=O)CC1CCCO1 (stereo not drawn) | -29.9 | – | 2.06 µM [falling, partial curve]
COc1ccccc1N=C(C)C1=C(O)CC(c2ccccc2)CC1=O (stereo not drawn) | 8.28 | – | 29.1 µM [falling, single point]
COC(=O)c1ccc(N=Nc2ccccc2)cc1 | 14 | – | –
CCCCn1c(N)c(N(CCC(C)C)C(=O)C2=NN(c3ccccc3)C(=O)CC2)c(=O)[nH]c1=O | -7.27 | – | 0.411 µM [rising, partial curve, poor fit]
CCCCc1c(C)nn(-c2nnc3c4ccccc4n(C)c3n2)c1C | 39.4 | 18.4 µM [rising, single point] | –
O=C(O)Cc1c(C(=O)O)[nH]c2ccc(C(=O)O)cc12 | 0.367 | – | 0.291 µM [falling, full curve, poor fit]
CCOC(=O)N1CCN(C(=O)CN(c2cc(Cl)ccc2OC)S(=O)(=O)c2ccccc2)CC1 | -25.6 | – | 29.1 µM [falling, single point]
O=C(Nc1cccc(S(=O)(=O)N2CCOCC2)c1)C1CCN(S(=O)(=O)c2ccccc2)CC1 | 2.36 | – | 0.517 µM [falling, full curve, poor fit]
N#CC1=C2SCN(Cc3ccco3)CN2C(=O)CC1c1c(F)cccc1Cl (stereo not drawn) | -5.45 | – | 0.116 µM [falling, full curve, poor fit]
CCCOc1ccc(/C=C/C(=O)Nc2ccc([N+](=O)[O-])cc2)cc1 | 19.2 | – | 0.0731 µM [rising, full curve, poor fit]
CCc1nnc(NC(=O)c2cccnc2SC)s1 | 66.3 | 18.4 µM [rising, single point] | –
CCCC(O)(c1ccccc1)C(CN1CCOCC1)c1ccccc1 (stereo not drawn) | -43.7 | 16.4 µM [falling, single point] | 18.4 µM [falling, single point]

2 of the compounds above, as comma-separated lines:
Structure (SMILES),cell number change [%],AC50 [1],AC50 [2]
CCC(c1nnnn1CCOC)N(Cc1cc2c(C)cc(C)cc2[nH]c1=O)CC1CCCO1 (stereo not drawn),-29.9,–,"2.06 µM [falling, partial curve]"
COc1ccccc1N=C(C)C1=C(O)CC(c2ccccc2)CC1=O (stereo not drawn),8.28,–,"29.1 µM [falling, single point]"
